Publication PMC9927574
These are yes or no findings as the source states them, for the method shown. Binding seen in cells or lysates may run through a third protein. Binding calls can cover weak binding; strength is not graded here.

B1: small heat shock protein IpbB (protein, UniProt P0C058 1-142)
chain: MRNFDLSPLMRQWIGFDKLANALQNAGESQSFPPYNIEKSDDNHYRITLALAGFRQEDLEIQLEGTRLSVKGTPEQPKEEKKWLHQGLMNQPFSLSFTLAENMEVSGATFVNGLLHIDLIRNEPEPIAAQRIAISERPALNS
B2: HslJ (protein, UniProt P52644 1-140)
chain: MKKVAAFVALSLLMAGCVSNDKIAVTPEQLQHHRFVLESVNGKPVTSDKNPPEISFGEKMMISGSMCNRFSGEGKLSNGELTAKGLAMTRMMCANPQLNELDNTISEMLKEGAQVDLTANQLTLATAKQTLTYKLADLMN
B3: small heat shock protein IpbA (protein, UniProt P0C054 1-137)
chain: MRNFDLSPLYRSAIGFDRLFNHLENNQSQSNGGYPPYNVELVDENHYRIAIAVAGFAESELEITAQDNLLVVKGAHADEQKERTYLYQGIAERNFERKFQLAENIHVRGANLVNGLLYIDLERVIPEAKKPRRIEIN
B4: sensor protein Lrp (protein, UniProt P0ACJ0 1-164)
chain: MVDSKKRPGKDLDRIDRNILNELQKDGRISNVELSKRVGLSPTPCLERVRRLERQGFIQGYTALLNPHYLDASLLVFVEITLNRGAPDVFEQFNTAVQKLEEIQECHLVSGDFDYLLKTRVPDMSAYRKLLGETLLRLPGVNDTRTYVVMEEVKQSNRLVIKTR
B5: HslR (protein, UniProt P0ACG8 1-133)
chain: MKEKPAVEVRLDKWLWAARFYKTRALAREMIEGGKVHYNGQRSKPSKIVELNATLTLRQGNDERTVIVKAITEQRRPASEAALLYEETAESVEKREKMALARKLNALTMPHPDRRPDKKERRDLLRFKHGDSE
B6: membrane protein YajC (protein, UniProt P0ADZ7 1-110)
chain: MSFFISDAVAATGAPAQGSPMSLILMLVVFGLIFYFMILRPQQKRTKEHKKLMDSIAKGDEVLTNGGLVGRVTKVAENGYIAIALNDTTEVVIKRDFVAAVLPKGTMKAL

Each binder was assayed against hexa-histidine-tag fused TseL^PA (Pseudomonas aeruginosa LYSZa7) (assay: pull-down; hexa-histidine-tag fused TseL^PA as bait to find potential toxin targets; 48 proteins pulled out (Table S4); sample and way of identification not told in the text shown).

| Binder | binding |
| --- | --- |
| B1 | binds |
| B2 | binds |
| B3 | binds |
| B4 | binds |
| B5 | binds |
| B6 | binds |
